Record: PubChem BioAssay AID1259286 (Sanger Institute, 2017)

Purpose: 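Kinase knock-downs that reduce colorectal cancer cell viability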 (primary screen)
Cell system: NCI-H630 human colorectal cancer cells
Knock-down reagent: siRNA pool against human genes
Conditions: anchor drugs BYL719 at 1 µM, cetuximab at 5 µg/ml or trametinib at 10 nM, or DMSO vehicle alone; exposure time not given
Measurement: 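Viability relative to non-targeting pool wells, averaged over replicates, with robust z-score for knock-down alone and a synergy score for each anchor drug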
Direction: viability z-score, knock-down alone: higher = more viable cells, weaker knock-down effect; viability vs control, knock-down alone: higher = more viable cells; synergy score with trametinib: higher = stronger synergistic killing with trametinib; synergy score with BYL719: higher = stronger synergistic killing with BYL719; synergy score with cetuximab: higher = stronger synergistic killing with cetuximab
Call rule: 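a gene is called essential when its knock-down-alone viability robust z-score is below -3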
Calls: active = essential when knocked down alone; inactive = not essential alone
Shown is one part, drawn at random, of 794 reagents. 17 of them (2.1%) were called active. 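Calls use knock-down alone only; synergy above 0.15 marked separately; viability seems capped at control level; exposure time not given.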 Entries without a mark were called inactive. Not stated in the record: the amount of reagent, the time to read-out.

gene	viability z-score, knock-down alone	viability vs control, knock-down alone (fraction of control)	synergy score with trametinib	synergy score with BYL719	synergy score with cetuximab
PKDCC	0.464	1	-0.0479	-0.0619	0.0439
CEP290	0.464	1	0.0386	-0.0814	0.0674
DUSP21	0.464	1	-0.0391	-0.0814	0.0529
WHR1	0.464	1	-0.0479	-0.0814	0.108
IRAK4	0.464	1	-0.0468	0.0207	0.003
PLK2	0.432	0.999	-0.049	0.0225	0.0863
MAP2K2	0.464	1	-0.0272	-0.0558	0.109
COQ8B	0.461	1	-0.048	-0.0815	0.00521
PTK2B	0.464	1	-0.024	-0.0814	0.0414
CDKN2B	-1.09	0.941	-0.0372	-0.135	-0.126
ARID1A	-0.142	0.977	0.0156	-0.102	-0.0955
ALPK2	0.464	1	-0.0373	-0.0523	0.0306
TNK1	0.178	0.989	-0.0287	0.0535	0.0916
MAGI2	-1.32	0.932	-0.0922	-0.0126	-0.0623
ACVR2A	0.464	1	-0.0479	-0.0495	0.0173
TAF1	0.169	0.989	-0.0245	-0.0203	0.0061
CAMKK2	0.464	1	0.0597	-0.0814	-0.0914
GRK7	0.456	1	-0.0197	0.0655	0.0145
NME3	0.464	1	-0.0479	-0.0761	0.0456
PRPS2	-1.08	0.942	-0.103	0.0525	-0.0191
PKLR	0.464	1	-0.0479	-0.0814	0
PRKAB1	-0.489	0.964	-0.0117	-0.0035	-0.0544
BCOR	-0.288	0.972	-0.0168	0.0157	0.0719
NEK5	0.464	1	-0.0479	-0.0814	-0.0481
PASK	-1.41	0.929	-0.0669	-0.0814	0.00896
SRPK1	0.464	1	-0.0479	-0.0664	0.095
ROS1	0.464	1	-0.0456	0.0525	-0.0062
MECOM	0.464	1	-0.0479	-0.0568	0.0699
FXR1	0.464	1	-0.0479	-0.0577	0.00993
PRKAB2	0.464	1	-0.0394	0.0967	0.0985
MAPK13	0.464	1	-0.0479	0.00256	-0.00205
NEK10	-0.147	0.977	-0.0699	0.123	0.0604
TTBK2	0.464	1	-0.0479	0.0455	-0.0174
MERTK	-0.619	0.959	-0.0532	-0.0571	0.0336
DYRK1A	0.464	1	-0.0479	-0.0682	0.0645
RIPK2	0.256	0.992	-0.0554	0.04	-0.0169
SIK2	0.464	1	-0.0479	-0.0277	-0.0116
TRIB3	0.464	1	-0.0479	-0.0139	0.0442
NTRK3	0.464	1	-0.0479	-0.0814	-0.121
PI4KB	0.464	1	-0.0479	-0.0814	0.107
IKBKE	0.464	1	-0.0479	0.0829	0.0675
CASK	0.464	1	-0.0465	0.0227	0.121
ALDH18A1	0.464	1	-0.0251	0.0228	0.0989
ADCK5	0.464	1	-0.0479	-0.0814	0.0707
ARAF	0.464	1	-0.0462	-0.0814	-0.0728
GNAS	0.464	1	-0.0479	0.0187	0.0628
PFKFB1	-1.25	0.935	-0.0417	0.0738	0.051
CIB2	-2.34	0.894	-0.0201	-0.00576	-0.188
CAMK2A	-0.523	0.963	-0.0617	-0.0198	0.0324
VRK3	0.464	1	-0.0479	-0.0814	-0.046
